Laboratory results from PubChem BioAssay AID248 (DTP/NCI, 2004).
The list is a part of this screen's results and no random one: it is rich in T/C values a quarter to a half above the control, in often repeated tests (any T/C) and in doses without a T/C. Further doses and runs are listed elsewhere. T/C gives the treated animals as a percentage of the vehicle group. Some doses have a count of surviving animals in place of a T/C: the source holds a T/C of zero for them, seemingly a mark for toxic or unscored doses. Some survivor counts are full or nearly so, which does not show that the dose was tolerated: the source hardly ever lists a survival T/C far under the control, and the zero likely stands for such cases as well. Counts of survivors are from the toxicity check (mostly the fifth day) where no day follows; animals may have died later. Schedules are NCI's codes, taken here to give the interval after Q, in days (D) or hours (H), and the number of doses after X. Some entries were tested several times; the values are given in rising order. Some schedule codes hold Z or #, which are not explained here. Where survival is the endpoint, this PubChem deposit counts one and a half times the control or more as active, and values a quarter to a half above the control carry no call in these data; other NCI protocols may use other cut-offs.

System: L1210 leukemia ip in BDF1 mice, survival T/C
Test: NCI In Vivo Anticancer Drug Screen. Data for tumor model L1210 Leukemia (intraperitoneal) in B6D2F1 (BDF1) mice
Settings: T/C endpoint: mean survival time, higher T/C = longer survival
[1] = dose: 300.0 mg/kg/injection, schedule: Q01DX001 (ip), vehicle: other
[2] = dose: 100.0 mg/kg/injection, schedule: Q01DX009 (ip), vehicle: Klucel (hydroxypropylcellulose) (HPC)
[3] = dose: 200.0 mg/kg/injection, schedule: Q04DX003 (ip), vehicle: Klucel (hydroxypropylcellulose) (HPC)
[4] = dose: 400.0 mg/kg/injection, schedule: Q04DX003 (ip), vehicle: Klucel (hydroxypropylcellulose) (HPC)
[5] = dose: 400.0 mg/kg/injection, schedule: Q01DX009 (ip), vehicle: Klucel (hydroxypropylcellulose) (HPC)
[6] = dose: 200.0 mg/kg/injection, schedule: Q01DX009 (ip), vehicle: saline with Tween-80
[7] = dose: 400.0 mg/kg/injection, schedule: Q04DX003 (ip), vehicle: saline with Tween-80
[8] = dose: 200.0 mg/kg/injection, schedule: Q01DX009 (ip), vehicle: Klucel (hydroxypropylcellulose) (HPC)
[9] = dose: 400.0 mg/kg/injection, schedule: Q01DX001 (ip), vehicle: saline
[10] = dose: 100.0 mg/kg/injection, schedule: Q01DX009 (ip), vehicle: saline with Tween-80
[11] = dose: 100.0 mg/kg/injection, schedule: Q04DX003 (ip), vehicle: saline with Tween-80
[12] = dose: 200.0 mg/kg/injection, schedule: Q04DX003 (ip), vehicle: saline with Tween-80
[13] = dose: 400.0 mg/kg/injection, schedule: Q04DX002 (ip), vehicle: saline with Tween-80
[14] = dose: 200.0 mg/kg/injection, schedule: Q01DX009 (ip), vehicle: saline
[15] = dose: 400.0 mg/kg/injection, schedule: Q01DX009 (ip), vehicle: saline

For `CC1(C)N=C(N)N=C(N)N1c1cccc(Br)c1`, the T/C (dose: 5.0 mg/kg/injection, schedule: Q01DX Z (ip), vehicle: saline) was 125 % of control, the T/C (dose: 10.0 mg/kg/injection, schedule: Q01DX Z (ip), vehicle: saline) was 139 % of control and the T/C (dose: 11.0 mg/kg/injection, schedule: Q01DX Z (ip), vehicle: saline) was 138 % of control. For the same compound, the T/C (dose: 15.0 mg/kg/injection, schedule: Q01DX Z (ip), vehicle: methylcellulose (MC)) was 128 % of control, the T/C (dose: 16.0 mg/kg/injection, schedule: Q01DX Z (ip), vehicle: carboxymethylcellulose (CMC)) was 128 % of control and the T/C (dose: 22.0 mg/kg/injection, schedule: Q01DX Z (ip), vehicle: methylcellulose (MC)) was 130 % of control. The T/C (dose: 25.0 mg/kg/injection, schedule: Q01DX Z (ip), vehicle: carboxymethylcellulose (CMC)) was 141 % of control, the T/C (dose: 33.0 mg/kg/injection, schedule: Q01DX Z (ip), vehicle: methylcellulose (MC)) was 143 % of control and the T/C (dose: 37.0 mg/kg/injection, schedule: Q01DX Z (ip), vehicle: saline) was 141 % of control. The survivor count (dose: 100.0 mg/kg/injection, schedule: Q01DX Z (ip), vehicle: saline) was 6 of 6, the survivor count (dose: 200.0 mg/kg/injection, schedule: Q01DX Z (ip), vehicle: saline) was 0 of 6 and the survivor count [1] was 0 of 6.
For `OC(CN1CC1)C(O)CN1CC1` (stereo not given), the T/C (dose: 0.12 mg/kg/injection, schedule: Q01DX Z (ip), vehicle: carboxymethylcellulose (CMC)) was 137 % of control, the T/C (dose: 0.25 mg/kg/injection, schedule: Q01DX Z (ip), vehicle: carboxymethylcellulose (CMC)) was 145 % of control and the survivor count (dose: 1.0 mg/kg/injection, schedule: Q01DX Z (ip), vehicle: carboxymethylcellulose (CMC)) was 6 of 6. For the same compound, the survivor count (dose: 1.5 mg/kg/injection, schedule: Q01DX Z (ip), vehicle: carboxymethylcellulose (CMC)) was 5 of 6, the survivor count (dose: 2.2 mg/kg/injection, schedule: Q01DX Z (ip), vehicle: carboxymethylcellulose (CMC)) was 0 of 6 and the survivor count (dose: 3.3 mg/kg/injection, schedule: Q01DX Z (ip), vehicle: carboxymethylcellulose (CMC)) was 0 of 6.
In the case of `CC(=O)Oc1c(OC(C)=O)c(C=O)c2c(OC(C)=O)c(-c3c(C)cc4c(C(C)C)c(OC(C)=O)c(OC(C)=O)c(C=O)c4c3OC(C)=O)c(C)cc2c1C(C)C`, the survivor count (dose: 50.0 mg/kg/injection, schedule: Q01DX009 (ip), vehicle: Klucel (hydroxypropylcellulose) (HPC)) is reported as 4 of 6, the survivor count [2] is reported as 2 of 6 and the survivor count [3] is reported as 4 of 6. The survivor count [4] was 0 of 6.
For `CSc1ccc(NC(=O)Nc2ccc(Cl)cc2C(=O)c2ccccc2)cc1`, the survivor count [5] was 6 of 6.
`CC(C(c1ccccc1)c1ccc(Cl)cc1)[N+](=O)[O-]` (stereo not given) was tested, and the T/C (dose: 50.0 mg/kg/injection, schedule: Q01DX009 (ip), vehicle: saline with Tween-80) was 125 % of control, the survivor count [6] was 4 of 6 and the survivor count [7] was 2 of 6. The survivor count (dose: 400.0 mg/kg/injection, schedule: Q04DX003 (ip), vehicle: saline) was 6 of 6.
For `COc1ccc(/C=N/NC(=O)CNC(=O)Nc2cccc(Cl)c2Cl)cc1`, the survivor count [6] was 3 of 3.
`O=C1NC(=O)C(O)(C2(O)C(=O)NC(=O)NC2=O)C(=O)N1` was tested, and the survivor count (dose: 300.0 mg/kg/injection, schedule: Q01DX001 (ip), vehicle: carboxymethylcellulose (CMC)) was 1 of 6.
For `Cc1ccc(C(C)C)cc1NC(=O)Nc1ccccc1F`, the survivor count [5] was 6 of 6.
`CCN(CC)CCC(C#N)(CC=C(C)C)c1cccc2ccccc12` (stereo not given) was tested, and the survivor count [2] was 2 of 6, the survivor count [8] was 0 of 6 and the survivor count [5] was 0 of 6.
`Nc1ccc([N+](=O)[O-])cc1[N+](=O)[O-]` was tested, and the survivor count [3] was 6 of 6 and the survivor count [4] was 6 of 6.
For `COc1ccc2c3c1OC1C(O)=CCC4[C@H](C2)N(C)CC[C@@]314` (stereo not given in full), the survivor count [9] was 1 of 4.
For `CCCCOP(=O)(OCCCC)C(C)c1ccccc1` (stereo not given), the survivor count [10] was 2 of 3 and 5 of 6, the survivor count [11] was 0 of 6 and the survivor count (dose: 200.0 mg/kg/injection, schedule: Q04DX002 (ip), vehicle: saline with Tween-80) was 3 of 6. For the same compound, the survivor count [12] was 0 of 6 and the survivor count [13] was 0 of 6.
`CCOC(=O)c1ccc(NC(=S)NC(=O)c2ccccc2)cc1` was tested, and the survivor count [13] was 3 of 3.
In the case of `N#Cc1nc2ccc(Cl)cc2nc1C#N`, the survivor count [8] is reported as 6 of 6 and the survivor count [5] is reported as 4 of 6.
`COc1cccc(CNCc2cccc(OC)c2O)c1O` was tested, and the survivor count (dose: 200.0 mg/kg/injection, schedule: Q01DX001 (ip), vehicle: saline) was 3 of 6 and the survivor count [9] was 0 of 6.
For `O=C(C[n+]1ccccc1Br)c1cccc([N+](=O)[O-])c1`, the survivor count [1] was 0 of 6.
For `c1cc(OCCN2CC2)ccn1`, the survivor count (dose: 50.0 mg/kg/injection, schedule: Q01DX001 (ip), vehicle: carboxymethylcellulose (CMC)) was 3 of 6, the survivor count (dose: 100.0 mg/kg/injection, schedule: Q01DX001 (ip), vehicle: carboxymethylcellulose (CMC)) was 0 of 6 and the survivor count (dose: 200.0 mg/kg/injection, schedule: Q01DX001 (ip), vehicle: carboxymethylcellulose (CMC)) was 0 of 6. For the same compound, the survivor count (dose: 400.0 mg/kg/injection, schedule: Q01DX001 (ip), vehicle: carboxymethylcellulose (CMC)) was 0 of 6.
In the case of `C#CC(C)OCC(O)CCl` (stereo not given), the survivor count [14] is reported as 5 of 6 and the survivor count [15] is reported as 0 of 6.
`CCOP(N)(=O)SCC` (stereo not given) was tested, and the survivor count (dose: 10.0 mg/kg/injection, schedule: Q01DX001 (ip), vehicle: saline) was 3 of 6, the survivor count (dose: 20.0 mg/kg/injection, schedule: Q01DX001 (ip), vehicle: saline) was 0 of 6 and the survivor count (dose: 40.0 mg/kg/injection, schedule: Q01DX001 (ip), vehicle: saline) was 0 of 6. For the same compound, the survivor count (dose: 75.0 mg/kg/injection, schedule: Q01DX001 (ip), vehicle: saline) was 0 of 6, the survivor count (dose: 80.0 mg/kg/injection, schedule: Q01DX001 (ip), vehicle: saline) was 0 of 6 and the survivor count (dose: 150.0 mg/kg/injection, schedule: Q01DX001 (ip), vehicle: saline) was 0 of 6. For the same compound, the survivor count (dose: 300.0 mg/kg/injection, schedule: Q01DX001 (ip), vehicle: saline) was 0 of 6.
`Cc1ccc(S)cc1` was tested, and the survivor count [14] was 3 of 6 and the survivor count [15] was 1 of 6.
`O=C(Nc1cccc(Cl)c1Cl)Oc1ccc(OCc2ccccc2)cc1` was tested, and the survivor count [8] was 6 of 6.
In the case of `CN1CCN(C(=O)NCCCl)CC1`, the survivor count [11] is reported as 0 of 6, the survivor count [12] is reported as 0 of 6 and the survivor count [7] is reported as 0 of 6.
For `CN(C)C=NC1(c2ccccc2)CCCCC1`, the survivor count [10] was 6 of 6.
With `N#CCCCOc1ccc(Cl)cc1` the survivor count (dose: 100.0 mg/kg/injection, schedule: Q04DX003 (ip), vehicle: Klucel (hydroxypropylcellulose) (HPC)) was 1 of 6, the survivor count [3] was 5 of 6 and the survivor count [4] was 0 of 6.
